From patent US8816082B2, “Heterocyclyl-pyridinyl-based biphosphonic acid, pharmaceutically acceptable salt thereof, composition thereof and method of use thereof” (The Royal Institution for the Advancement of …, priority 2010, dated 2014)
Structures can show the parent of a compound that is named as a salt. Some entries share one result that the patent states for a list of compounds.

Target: T1, human farnesyl pyrophosphate synthase (hFPPS) (Homo sapiens, UniProt P14324)
T1 sequence (P14324 1-419): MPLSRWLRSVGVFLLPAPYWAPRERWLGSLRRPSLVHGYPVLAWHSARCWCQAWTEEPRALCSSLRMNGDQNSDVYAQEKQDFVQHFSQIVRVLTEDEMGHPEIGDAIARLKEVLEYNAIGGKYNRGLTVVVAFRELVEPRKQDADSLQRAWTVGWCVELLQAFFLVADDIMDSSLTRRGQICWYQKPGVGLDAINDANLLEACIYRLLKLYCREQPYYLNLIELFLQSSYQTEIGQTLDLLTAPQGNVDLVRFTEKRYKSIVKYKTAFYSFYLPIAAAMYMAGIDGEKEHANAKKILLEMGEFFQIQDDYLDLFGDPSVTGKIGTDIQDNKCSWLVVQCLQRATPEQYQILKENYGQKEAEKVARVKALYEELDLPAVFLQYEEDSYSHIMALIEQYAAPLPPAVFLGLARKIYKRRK
Assay: In vitro enzymatic inhibition assay for hFPPS, initial screening conditions (partly purified enzyme, 5 min pre-incubation)
Assay type: biochemical
Settings: hFPPS assay conducted on compounds of Examples 1 to 42

O=P(O)(O)C(F)(Cc1cncc(-c2ccc3[nH]ncc3c2)c1)P(=O)(O)O [Compound 7]
IC50: ≤ 100 µM

O=P(O)(O)C(F)(Cc1cncc(-c2cn[nH]c2)c1)P(=O)(O)O [Compound 3, (2-(5-(1H-pyrazol-4-yl)pyridin-3-yl)-1-fluoroethane-1,1-diyl)diphosphonic acid, monosodium salt]
IC50: ≤ 100 µM
